Test results reported in PMC1847702.
These are yes or no findings as the source states them, for the method shown.

Protein sequences, listed by entry. Tags and fused reporters are not part of them. Residues count along the entry.
UniProt P63165, residues 1-97: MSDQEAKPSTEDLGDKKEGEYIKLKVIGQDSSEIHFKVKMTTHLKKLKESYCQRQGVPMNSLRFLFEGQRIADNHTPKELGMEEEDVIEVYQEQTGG
UniProt P05161, residues 1-157: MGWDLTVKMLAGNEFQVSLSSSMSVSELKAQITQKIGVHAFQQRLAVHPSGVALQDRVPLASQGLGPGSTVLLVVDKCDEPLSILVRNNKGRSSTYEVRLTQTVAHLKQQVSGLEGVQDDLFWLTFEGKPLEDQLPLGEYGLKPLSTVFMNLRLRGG

Tests used:
SUMO1-vinylsulfone = SUMO1-vinylsulfone (UniProt P63165); assay: covalent adduct formation with electrophilic (activity-based) probes, reducing SDS-PAGE and fluorography; only the target purified
ISG15-vinylsulfone = ISG15-vinylsulfone (UniProt P05161); assay: as above

B1: elaD (wildtype), 35S-methionine-labeled, in vitro translated (enzyme, UniProt Q47013 1-403)
chain: MMVTVVSNYCQLSQTQLSQTFAEKFTVTEELLQSLKKTALSGDEESIELLHNIALGYDKFGKEAEDILYHIVRTPTNETLSIIRLIKNACLKLYNLAHIATNSPLKSHDSDDLLFKKLFSPSKLMTIIGDEIPLISEKQSLSKVLLNDENNELSDGTNFWDKNRQLTTDEIACYLQKIAANAKNTQVNYPTGLYVPYSTRTHLEDALNENIKSDPSWPNEVQLFPINTGGHWILVSLQKIVNKKNNKLQIKCVIFNSLRALGYDKENSLKRVINSFNSELMGEMSNNNIKVHLNEPEIIFLHADLQQYLSQSCGAFVCMAAQEVIEQRESNSDSAPYTLLKNHADRFKKYSAEEQYEIDFQHRLANRNCYLDKYGDANINHYYRNLEIKHSQPKNRASGKRVS
modifications: 35S-methionine label
With B1 the binding (SUMO1-vinylsulfone) was “no binding (tested: 0.1 µg of probe)” and the binding (ISG15-vinylsulfone) was “no binding (tested: 0.1 µg of probe)”.
